Reference: patent EP0135429B1 (THE UNIVERSITY OF GEORGIA RESEARCH FOUNDATION, INC., priority 1983, dated 1992)

Test: general procedure: solution-phase peptide synthesis; EDC/HOBt/N-methylmorpholine
Conditions: late stage modification step, acetate

Substance: PEPTIDE1{Y.[dA].G.[VEPhe(1R)].L}$$$$V2.0
- step yield: 70.4%

HELM strings list residues between dots; [ac] is acetyl, [am] amide, other brackets name non-standard units.
